# Results: PubChem BioAssay AID504467 (National Center for Advancing Translational Sciences (NCATS), 2011)
# The whole screen tested about 330,000 compounds, of which about 7,700 (2.3%) were called active. The inconclusive results got no clear call from the source; some entries with a clear call stand among them for comparison. Calls come from the whole dose curve; as a rule, active = well fitted inhibition curve with a large enough effect; inconclusive = small, poorly fitted or top-dose-only effect, or effect the other way; inactive = flat fitted curve, though single readings scatter. Potencies beside an inconclusive call are fits to weak or partial responses and may not hold up.
# Assay: qHTS screen for small molecules that inhibit ELG1-dependent DNA repair in human embryonic kidney (HEK293T) cells expressing luciferase-tagged ELG1; note: nearly all actives have a fitted effect of over 55% in size
# Details: HEK293T ELG1-luciferase reporter, luminescence, 16 h, DNA damage induced by 5-fluorouridine; series mostly up to 46.1 µM
# Summary of the method: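 DMSO vehicle served as the neutral condition. Each well held 2,000 cells given 5-fluorouridine plus compound; after 16 hr at 37 °C/5% CO2, ONE-Glo was added and luciferase measured 30 min later.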
# Potency is the fitted concentration of half-maximal effect.
row,SMILES,Potency
1,CCCCCN(C(=O)CCC(=O)OCC(=O)N1CCCCC1C)c1c(N)n(CCCC)c(=O)[nH]c1=O (configuration not stated),inactive
2,CCOC(=O)C(=O)NCC(c1cccs1)S(=O)(=O)c1ccc(Cl)cc1 (configuration not stated),"inconclusive: 23.1 µM [activator, partial curve, poor fit]"
3,CCOc1ccc(S(=O)(=O)N2CCN(c3ccccc3)CC2)c2cccnc12,inactive
4,COc1ccccc1CNC(=O)C(Cc1ccccc1)NC(=O)c1ccccc1 (configuration not stated),"inconclusive: 18.3 µM [inhibitor, single point]"
5,CCOC(=O)c1[nH]c(C)c(C(=O)OCC(=O)N(C)C2CCS(=O)(=O)C2)c1C (configuration not stated),inactive
6,Cc1cc(C)n(-c2ccc(C(=O)Nc3ccc(C)c(S(=O)(=O)N4CCOCC4)c3)cc2)n1,"inconclusive: 14.6 µM [inhibitor, single point]"
7,O=C(O)c1ccc(/C=C/c2nc3sc4c(c3c(=O)[nH]2)CCC4)cc1,inactive
8,CC(C)c1ccc(CNc2ccc3c(c2)ncn3C)cc1,"inconclusive: 9.2 µM [activator, partial curve]"
9,Cc1ncsc1C(=O)Nc1nc2c(s1)CC(C)CC2 (configuration not stated),"inconclusive: 2.59 µM [activator, partial curve]"
10,CCOc1ccccc1NC(=O)CN(c1nccs1)S(=O)(=O)c1ccc(N)cc1,"inconclusive: 32.6 µM [activator, partial curve, poor fit]"
11,S=C1N(c2ccccc2)CN(C2CCCCC2)CN1c1ccccc1,"inconclusive: 0.116 µM [inhibitor, full curve, poor fit]"
12,CCC(C)c1ccccc1NC(=O)c1cc2cccc([N+](=O)[O-])c2[nH]1 (configuration not stated),active: 20.6 µM
13,Cc1ccc(C(=O)NC2CCCC2)s1,"inconclusive: 18.3 µM [activator, partial curve, poor fit]"
14,COc1ccc(/C(=N\Nc2ccccc2C(=O)O)c2ccccc2)cc1,"inconclusive: 14.6 µM [activator, partial curve]"
15,O=C(N/N=C/c1ccc2c(c1)OCO2)c1ccc(NC(=O)c2ccccc2Cl)cc1,active: 13 µM
16,CC(C)NC(=O)C(=O)Nc1cc2c3c(c1)CCC(=O)N3CCC2,"inconclusive: 14.6 µM [activator, partial curve]"
17,C=CCn1c(COc2ccccc2F)nnc1SCC(=O)c1c[nH]c2ccccc12,"inconclusive: 29.1 µM [inhibitor, single point]"
18,COc1ccc(CCNC(=S)NC(=O)c2ccc(Br)cc2)cc1OC,"inconclusive: 20.6 µM [inhibitor, single point]"
19,Cc1ccc(/C=N/n2c(-c3ccncc3)n[nH]c2=S)cc1,"inconclusive: 29.1 µM [inhibitor, partial curve, poor fit]"
20,CCn1c(CC(=O)Nc2cccc(Cl)c2Cl)nnc1SCCOc1ccc(OC)cc1,"inconclusive: 16.4 µM [activator, partial curve]"
21,O=C1C2C3C=CC(C4CC34)C2C(=O)N1/N=C/c1ccc(-c2ccc(F)cc2[N+](=O)[O-])o1 (configuration not stated),"inconclusive: 14.6 µM [inhibitor, partial curve]"

# Pulled by compound from the entries so far, three records:
row,SMILES,Potency
7,O=C(O)c1ccc(/C=C/c2nc3sc4c(c3c(=O)[nH]2)CCC4)cc1,inactive
3,CCOc1ccc(S(=O)(=O)N2CCN(c3ccccc3)CC2)c2cccnc12,inactive
17,C=CCn1c(COc2ccccc2F)nnc1SCC(=O)c1c[nH]c2ccccc12,"inconclusive: 29.1 µM [inhibitor, single point]"

# The list continues.

row,SMILES,Potency
1,Cc1ccc(-c2nc(-c3ccccc3)no2)cc1,"inconclusive: 0.731 µM [activator, full curve]"
2,O=C(NC1CC(=O)N(c2cccc(F)c2)C1)C(=O)c1c[nH]c2ccccc12 (configuration not stated),"inconclusive: 7.3 µM [activator, single point]"
3,COc1cccc(CCNC(=O)C2CCCN(c3ncnc4c3nc3n4CCCCC3)C2)c1OC (configuration not stated),active: 7.3 µM
4,CCCN(C(=O)COc1ccc(Cl)cc1Cl)c1c(N)n(Cc2ccccc2)c(=O)[nH]c1=O,inactive
5,Nc1c(C(=O)c2ccccc2)sc2nsc(SCCN3CCOCC3)c12,"inconclusive: 32.6 µM [inhibitor, partial curve, poor fit]"
6,CN1/C(=C\C(=O)c2cccnc2)Sc2ccccc21,"inconclusive: 11.6 µM [activator, partial curve]"
7,OCCC1CN(CC(c2ccccc2)c2ccccc2)CCN1C1CCCC1 (configuration not stated),inactive
8,CCN1C(=O)/C(=C\c2nc3ccccc3c(=O)n2-c2ccccc2)c2ccccc21,"inconclusive: 18.4 µM [inhibitor, single point]"
9,CC1CCN(c2nc(Cl)nc(Nc3ccc([N+](=O)[O-])cc3)n2)CC1,"inconclusive: 29.1 µM [inhibitor, single point]"
10,O=c1[nH]c2cc3c(cc2cc1C(c1nnnn1C1CCCC1)N1CCSCC1)OCCO3 (configuration not stated),inactive
11,CC(C)(C)c1ccc(C(=O)NC(=S)Nc2ccc(N3CCOCC3)cc2)cc1,"inconclusive: 16.4 µM [activator, single point]"
12,COc1cc2c(=O)n(Cc3ccco3)c(=O)n(CC(=O)c3cccc(Br)c3)c2cc1OC,"inconclusive: 18.4 µM [inhibitor, partial curve]"
13,CCCCOc1ccc(-c2nnc(-c3ccncc3)o2)cc1,"inconclusive: 1.84 µM [activator, full curve, poor fit]"
14,Cc1ccc(S(=O)(=O)Nc2ccc(O)c3cccnc23)cc1,active: 18.3 µM
15,N#Cc1c(NC(=O)CSc2nnc(-c3ccncc3)n2CC2CCCO2)sc2c1CCCC2 (configuration not stated),"inconclusive: 32.6 µM [inhibitor, single point]"
16,COc1ccc(NC(=O)CN(C)C(=O)c2ccc(=O)[nH]c2)cc1,"inconclusive: 1.03 µM [inhibitor, partial curve, poor fit]"
17,C/C(Cn1nnc([N+](=O)[O-])n1)=N\NC(=O)c1ccncc1,"inconclusive: 14.6 µM [inhibitor, partial curve, poor fit]"
18,COCCN(C(=O)c1sc2ccccc2c1Cl)c1c(N)n(CC(C)C)c(=O)[nH]c1=O,inactive
19,Cc1ccc2nc(-c3ccc(-c4ccccn4)s3)cn2c1,"inconclusive: 1.3 µM [activator, partial curve]"
20,CC(C)(C)OC(=O)N1CCCC(C(=O)CC#N)C1 (configuration not stated),"inconclusive: 18.4 µM [inhibitor, single point]"
21,COc1cccc(CSc2nc3ccncc3[nH]2)c1,"inconclusive: 11.6 µM [activator, partial curve]"
